From PubChem BioAssay AID493014 (National Center for Advancing Translational Sciences (NCATS), 2011)
Several values for one entry are separate records, joined by “and”; a condition that tells them apart may be missing. Identical values can stand only once. The list shows a part of the results. Shown are side measurements of this screen, not its main read-out; they come without a call. Compounds called inactive in the main read-out are mostly missing here. Potencies come from curve fits of mixed quality, noted in brackets.

Assay: qHTS Assay to Find Inhibitors of Chronic Active B-Cell Receptor Signaling
Conditions: ABC-DLBCL IkBa-CBG/CBR reporter, luminescence ratio (green luciferase fused to IkBa over red control in TMD8 lymphoma cells), 4 h
How it was run: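 Cell line TMD8 (human ABC DLBCL), stably expressing tet-inducible CBG68-IkBa fusion and CBR; IMDM/0.5% FBS; cpd up to 46 uM; dox induction, 4 h, 37C/5% CO2; dual luminescence; green/red ratio; MG132 control.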

[1] = measured here: CBR red luminescence, cell number
[2] = measured here: IkBa-CBG green luminescence

Cc1ccc(-n2nnnc2-c2cnc3cc4c(cc3c2C)OCO4)cc1
AC50 [1]: 0.0517 µM [rising, full curve]

COC(=O)C1=C(C)N(Cc2ccccc2)C(=NCc2ccccc2)N[C@H]1c1cccc(F)c1
AC50 [1]: 8.91 µM [falling, partial curve, poor fit] | AC50 [2]: 31.6 µM [rising, single point]

CCOC(=O)N1CCC(NC(=O)CS(=O)(=O)Cc2nc(-c3ccccc3C)oc2C)CC1
AC50 [1]: 20.6 µM [rising, single point] | AC50 [2]: 20.6 µM [falling, partial curve, poor fit]

CCNc1nc(NCC)nc(SCCOc2ccc(C)cc2)n1
AC50 [1]: 29.1 µM [falling, single point]

Cc1cc(C)n2nc(CCc3nc4nc(C)cc(C)n4n3)nc2n1
AC50 [1]: 6.31 µM [rising, single point]

O=C(N/N=C/C1CC2CCC1C2)c1c[nH]c2ccccc12 (stereo unspecified)
AC50 [1]: 22.4 µM [falling, single point]

O=C(Nc1cc(=O)[nH]c2nc(-c3ccc(Cl)cc3)nn12)c1ccccc1
AC50 [1]: 7.08 µM [falling, partial curve]

NC(=O)C1CC(=O)N(c2ccc(OCc3ccc(Cl)cc3)cc2)C1 (stereo unspecified)
AC50 [1]: 3.98 µM [rising, full curve]

O=[N+]([O-])c1ccc(C2CN=C(Nc3ccccc3)S2)cc1 (stereo unspecified)
AC50 [1]: 20 µM [falling, partial curve]

COc1ccccc1/C=C1\SC(=S)N(CCC(=O)Nc2cc(C)on2)C1=O
AC50 [1]: 2.24 µM [falling, full curve]

CN1CCN(c2ccccc2NC(=O)COc2ccc(Cl)cc2)CC1
AC50 [1]: 5.62 µM [rising, partial curve, poor fit]

O=C(Nc1ccc(F)c(Cl)c1)Nc1ccc(Cl)cn1
AC50 [1]: 0.794 µM [rising, full curve, poor fit]

CCOC(=O)C1=C(C)OC(N)=C(C#N)C1c1cccs1 (stereo unspecified)
AC50 [1]: 35.5 µM [falling, single point]

COc1cccc(-c2nc(-c3ccccc3)no2)c1
AC50 [1]: 23.1 µM [falling, single point]

COc1ccc(Nc2cc(C(=O)NCCCN3CCN(c4ccc(OC)cc4)CC3)c3ccccc3n2)cc1
AC50 [1]: 12.6 µM [falling, single point] | AC50 [2]: 4.47 µM [rising, partial curve, poor fit]

COc1cc(Cl)ccc1S(=O)(=O)n1nc(C)cc1C
AC50 [1]: 6.51 µM [falling, single point]

Cc1ccc(S(C)(=O)=N/C=C2\C(=O)c3sccc3N(C)S2(=O)=O)cc1 (stereo unspecified)
AC50 [1]: 12.6 µM [rising, partial curve, poor fit]

COc1cccc(CCNC(=O)c2cccc(NC(=O)C3=C(C)OCCS3)c2)c1
AC50 [1]: 7.94 µM [falling, partial curve]

COc1ccc2cc(C#N)c(SCC(=O)N3CC(=O)Nc4ccccc43)nc2c1
AC50 [1]: 11.2 µM [falling, partial curve, poor fit]

O=C(CCn1cnnn1)Nc1ccc(F)cc1
AC50 [1]: 1.12 µM [falling, partial curve, poor fit]

C[C@@H]1CN([C@@H](C)CO)C(=O)Cc2cc(NC(=O)Nc3cccc4ccccc34)ccc2O[C@@H]1CN(C)Cc1ccc(C(F)(F)F)cc1
AC50 [1]: 14.6 µM [falling, single point]

Cc1ccc(-c2nc3cccnc3s2)cc1NC(=O)C1c2ccccc2Oc2ccccc21
AC50 [1]: 13 µM [rising, partial curve]

O=C(COC(=O)CC12CC3CC(CC(Br)(C3)C1)C2)NC(=O)NCc1ccco1
AC50 [1]: 0.501 µM [rising, full curve, poor fit]

CCOc1ccc(CCNC(=O)CN2C(=O)NC(CCSC)C2=O)cc1OCC (stereo unspecified)
AC50 [1]: 7.94 µM [rising, partial curve, poor fit]

Cc1nnc(N/N=C/C(C)c2ccccc2)[nH]c1=O (stereo unspecified)
AC50 [1]: 1.41 µM [rising, partial curve, poor fit]

Cc1scc(C(=O)N/N=C/c2ccc([N+](=O)[O-])o2)c1C
AC50 [1]: 0.562 µM [falling, full curve, poor fit]

CCCc1nc2c(=O)n(C)c(=O)nc-2n(C)n1
AC50 [1]: 10 µM [falling, partial curve, poor fit]

O=C(c1ccco1)N1CCN(C(=O)c2ccc(COc3ccc4c(c3)CCC4)o2)CC1
AC50 [1]: 10 µM [falling, partial curve, poor fit]

CCOC(=O)CSc1[nH]c(=O)cc(C)c1C#N
AC50 [1]: 0.517 µM [falling, full curve, poor fit]

O=C(Nc1ccc(Br)c(C(F)(F)F)c1)c1ccccc1
AC50 [2]: 29.1 µM [rising, partial curve, poor fit]

Clc1ccc(/C=N/Nc2ncnc3ccccc23)cc1Cl
AC50 [1]: 14.1 µM [falling, partial curve]

CCS(=O)(=O)c1ccc2c(c1)NC(=O)C(CCCl)O2 (stereo unspecified)
AC50 [1]: 35.5 µM [rising, single point]

CC1=NN(C(=O)c2csc(C(C)C)c2)C(O)(C(F)(F)F)C1 (stereo unspecified)
AC50 [1]: 6.51 µM [falling, single point]

COc1ccc(C(=O)NC(C(=O)N2CCc3ccccc32)C(C)C)cc1 (stereo unspecified)
AC50 [1]: 3.66 µM [rising, full curve]

O=c1[nH]c(CN2CCN(S(=O)(=O)c3ccc(Cl)cc3)CC2)nc2cc(Cl)ccc12
AC50 [1]: 16.4 µM [rising, partial curve, poor fit]

Cc1ccc2oc(-c3cccc(NC(=O)c4cc(-n5cnnc5)ccc4Cl)c3)nc2c1
AC50 [1]: 2.91 µM [falling, full curve]

O=C(O)CCCC(=O)Nc1cccc(C(=O)Nc2ccccc2C(=O)O)c1
AC50 [1]: 12.6 µM [falling, partial curve]

C=C(C)CSc1nc2nc(C)cc(C)n2n1
AC50 [1]: 11.6 µM [rising, partial curve, poor fit]

CCc1ccc(NC(=O)CCn2nc(C)c(S(=O)(=O)N3CCCCC3)c2C)cc1
AC50 [1]: 17.8 µM [falling, single point]

CCCOC(=O)CSC1=C(C#N)C(c2ccccc2Cl)CC(=O)N1 (stereo unspecified)
AC50 [1]: 6.51 µM [rising, single point]

O=C(CSc1nnc(-c2ccc(F)cc2)o1)c1ccc2c(c1)OCCO2
AC50 [1]: 0.731 µM [falling, partial curve, poor fit]

Cc1ccc(N=C2NC(=O)/C(=C/c3cccn3C)S2)c(C)c1
AC50 [1]: 7.94 µM [falling, partial curve, poor fit]

O=C(N/N=C/c1ccccn1)c1cccs1
AC50 [1]: 20 µM [falling, partial curve, poor fit]

CCn1c2ccccc2c2cc(NC(=O)COC(=O)Cc3cn4ccsc4n3)ccc21
AC50 [1]: 22.4 µM [rising, single point]

O=C(Nc1nnc(SCc2ccccc2)s1)c1cc2c(s1)CCCC2
AC50 [1]: 2.06 µM [rising, full curve, poor fit]

N#C/C(=C\c1cn(Cc2ccc(F)cc2)c2ccccc12)C(=O)NCc1ccco1
AC50 [1]: 6.51 µM [rising, single point] | AC50 [2]: 6.51 µM [falling, partial curve, poor fit]

CCOc1ccc(C(C)(C)C)cc1S(=O)(=O)N1CC(C)OC(C)C1 (stereo unspecified)
AC50 [1]: 0.00461 µM [rising, full curve, poor fit]

Cc1cc(C)n(-c2nc3ccccc3nc2N2CCC(C)CC2)n1
AC50 [1]: 23.1 µM [rising, partial curve, poor fit]

CSc1nnc(C)c(=O)n1COC(=O)/C=C/c1ccc2c(c1)OCO2
AC50 [1]: 3.16 µM [falling, single point]

CCCCCn1c(=O)c(-c2nc3ccccc3[nH]2)c(O)c2ccccc21
AC50 [1]: 3.55 µM [rising, partial curve, poor fit]

COc1ccc(C)cc1-n1nnnc1SCc1nc2ccccc2c(=O)[nH]1
AC50 [1]: 6.31 µM [rising, single point]

COC(=O)C1=C(C)NC(C)=C(C(=O)OC)C1C(=O)OC(C)C(=O)c1ccccc1 (stereo unspecified)
AC50 [1]: 20 µM [rising, partial curve, poor fit] and 10.3 µM [rising, partial curve, poor fit]

COc1cccc(/C=C2\SC(=S)N(CCC(=O)Nc3ccc(O)cc3)C2=O)c1
AC50 [1]: 10 µM [falling, partial curve]

Oc1cccc2cnccc12
AC50 [1]: 0.355 µM [falling, full curve, poor fit]

COc1ccccc1Nc1nnc(SCc2nnc(-c3cc(OC)c(OC)c(OC)c3)o2)s1
AC50 [1]: 1.84 µM [rising, partial curve, poor fit]

COc1ccc(NC(=O)CN(C)S(=O)(=O)c2ccc(Cl)cc2)cc1Cl
AC50 [1]: 0.562 µM [falling, partial curve, poor fit]

Cc1ccc(C(=O)N2CC(=O)Nc3ccc(C)cc3C2c2ccccc2)cc1 (stereo unspecified)
AC50 [1]: 35.5 µM [falling, single point]

CCOC(=O)c1ccc(-c2ccc3c(c2)CCC3)nc1C
AC50 [1]: 12.6 µM [rising, partial curve, poor fit]

O=C(NC1=NCCS1)c1ccc(Br)s1
AC50 [1]: 0.82 µM [rising, partial curve, poor fit]

Cc1ccc2nc(-c3ccc(SCC(=O)Nc4nnc(C)s4)nc3)[nH]c2c1
AC50 [1]: 4.11 µM [falling, full curve, poor fit] | AC50 [2]: 23.1 µM [rising, partial curve, poor fit]

C=CCn1cccc(C(=O)Nc2cc(OC)ccc2OC)c1=O
AC50 [1]: 11.2 µM [falling, partial curve, poor fit]
